PubChem BioAssay AID1508597 | Cure First | 2020
Test: 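Survival screen with siRNA in ovarian cancer cells derived from patients, with or without rucaparib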 (primary screen). Cells: human ovarian carcinoma lines grown from tumours: OCI-P5x (papillary serous) and OCI-C5x (clear cell). Knock-down reagent: siRNA pool against human genes, 1.25 pmol siRNA per well. Time to read-out: 72 h or 96 h, depending on the cell culture. Challenge: rucaparib 20 µM (about IC30) or vehicle, present until read-out. Detection: 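Luminescent ATP-based viability assay read 72 or 96 h after transfection, depending on culture, given as normalised percent viability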. Direction: viability, normalised: higher = more viable cells remaining. Hit rule: 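Active when normalised viability falls below 80 percent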. Meaning of the calls: active = viability under 80%; inactive = viability 80% or more.
This is one part, drawn at random, of about 2,100 reagents. 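Calls flag viability under 80% in either arm, not effects specific to rucaparib; the reference for percent is not stated.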 Reagents against one gene are numbered here. Not stated in the record: the 100% reference.

Gene | pool no. | rucaparib or vehicle | cell line | technical replicate | viability, normalised (%) | Outcome
PI4KB | 1 | Rucaparib | OCI-C5x (clear cell) | 1 | 41.9 | active
PI4KB | 1 | Rucaparib | OCI-C5x (clear cell) | 2 | 37 | active
PI4KB | 1 | Rucaparib | OCI-C5x (clear cell) | 3 | 44.4 | active
PI4KB | 1 | Rucaparib | OCI-P5x (serous) | 1 | 67.4 | active
PI4KB | 1 | Rucaparib | OCI-P5x (serous) | 2 | 83.5 | inactive
PI4KB | 1 | Rucaparib | OCI-P5x (serous) | 3 | 71.1 | active
PI4KB | 1 | Vehicle | OCI-C5x (clear cell) | 1 | 43.4 | active
PI4KB | 1 | Vehicle | OCI-C5x (clear cell) | 2 | 41.7 | active
PI4KB | 1 | Vehicle | OCI-C5x (clear cell) | 3 | 41.4 | active
PI4KB | 1 | Vehicle | OCI-P5x (serous) | 1 | 83.6 | inactive
PI4KB | 1 | Vehicle | OCI-P5x (serous) | 2 | 70.1 | active
PI4KB | 1 | Vehicle | OCI-P5x (serous) | 3 | 83.7 | inactive
PI4KB | 2 | Rucaparib | OCI-C5x (clear cell) | 1 | 41.5 | active
PI4KB | 2 | Rucaparib | OCI-C5x (clear cell) | 2 | 48.3 | active
PI4KB | 2 | Rucaparib | OCI-C5x (clear cell) | 3 | 50.7 | active
PI4KB | 2 | Rucaparib | OCI-P5x (serous) | 1 | 104 | inactive
PI4KB | 2 | Rucaparib | OCI-P5x (serous) | 2 | 77.5 | active
PI4KB | 2 | Rucaparib | OCI-P5x (serous) | 3 | 74.5 | active
PI4KB | 2 | Vehicle | OCI-C5x (clear cell) | 1 | 43.3 | active
PI4KB | 2 | Vehicle | OCI-C5x (clear cell) | 2 | 51.3 | active
PI4KB | 2 | Vehicle | OCI-C5x (clear cell) | 3 | 34.5 | active
PI4KB | 2 | Vehicle | OCI-P5x (serous) | 1 | 54.6 | active
PI4KB | 2 | Vehicle | OCI-P5x (serous) | 2 | 52.1 | active
PI4KB | 2 | Vehicle | OCI-P5x (serous) | 3 | 48.3 | active
NRCAM | 1 | Rucaparib | OCI-C5x (clear cell) | 1 | 43.1 | active
NRCAM | 1 | Rucaparib | OCI-C5x (clear cell) | 2 | 31.6 | active
NRCAM | 1 | Rucaparib | OCI-C5x (clear cell) | 3 | 39.1 | active
NRCAM | 1 | Rucaparib | OCI-P5x (serous) | 1 | 33.6 | active
NRCAM | 1 | Rucaparib | OCI-P5x (serous) | 2 | 52.3 | active
NRCAM | 1 | Rucaparib | OCI-P5x (serous) | 3 | 41.7 | active
NRCAM | 1 | Vehicle | OCI-C5x (clear cell) | 1 | 28.5 | active
NRCAM | 1 | Vehicle | OCI-C5x (clear cell) | 2 | 31.1 | active
NRCAM | 1 | Vehicle | OCI-C5x (clear cell) | 3 | 36.7 | active
NRCAM | 1 | Vehicle | OCI-P5x (serous) | 1 | 44.4 | active
NRCAM | 1 | Vehicle | OCI-P5x (serous) | 2 | 50.2 | active
NRCAM | 1 | Vehicle | OCI-P5x (serous) | 3 | 49.1 | active
HP1BP3 | 1 | Rucaparib | OCI-C5x (clear cell) | 1 | 41.4 | active
HP1BP3 | 1 | Rucaparib | OCI-C5x (clear cell) | 2 | 42 | active
HP1BP3 | 1 | Rucaparib | OCI-C5x (clear cell) | 3 | 48.1 | active
HP1BP3 | 1 | Rucaparib | OCI-P5x (serous) | 1 | 58.8 | active
HP1BP3 | 1 | Rucaparib | OCI-P5x (serous) | 2 | 62.1 | active
HP1BP3 | 1 | Rucaparib | OCI-P5x (serous) | 3 | 46.7 | active
HP1BP3 | 1 | Vehicle | OCI-C5x (clear cell) | 1 | 43 | active
HP1BP3 | 1 | Vehicle | OCI-C5x (clear cell) | 2 | 54.5 | active
HP1BP3 | 1 | Vehicle | OCI-C5x (clear cell) | 3 | 53.4 | active
HP1BP3 | 1 | Vehicle | OCI-P5x (serous) | 1 | 57.3 | active
HP1BP3 | 1 | Vehicle | OCI-P5x (serous) | 2 | 66.4 | active
HP1BP3 | 1 | Vehicle | OCI-P5x (serous) | 3 | 70.8 | active
